Positions of bridges follow the written chain, without caps; N, C: chain ends. Non-standard residues stand in square brackets, D forms with d. *: point of attachment. Biotin = O=C1N[C@H]2[C@H](CS[C@H]2CCCCC(=O)*)N1; Nle = CCCC[C@H](N)C(=O)O; Dap = NC[C@H](N)C(=O)O

The data set is described as follows: peptide made by a vendor (Fmoc solid-phase peptide synthesis; HATU/DIEA). The settings on record: whole synthesis.
For “Ac-c(Cys-Pro-Pro-4amF-Leu-Pro-Dap-Tyr-Leu-Cys)-Dap-Leu-Ile-NH2”, the “purity (crude or final not stated)” value turned out to be 95.32%.
On to “Ac-C(Cys-Pro-Pro-Tyr-Leu-Pro-Dap-Tyr-Leu-Cys)-Dap-aMeLeu-Ile-NH2”, for which the “purity (crude or final not stated)” value stood at 98.8%.
Consider “Ac-c(Cys-Pro-Pro-Tyr-Leu-Pro-Dap-4AcF-Leu-Cys)-Dap-Leu-Ile-NH2”, for which the “purity (crude or final not stated)” value was 97.44%.
For the substance “Ac-CPPYLPRRLCTLLLRS-OH (disulfide 1-10; SMILES CC(=O)N[C@H]1CSSC[C@@H](C(=O)N[C@H](C(=O)N[C@@H](CC(C)C)C(=O)N[C@@H](CC(C)C)C(=O)N[C@@H](CC(C)C)C(=O)N[C@@H](CCCNC(=N)N)C(=O)N[C@@H](CO)C(=O)O)[C@@H](C)O)NC(=O)[C@H](CC(C)C)NC(=O)[C@H](CCCNC(=N)N)NC(=O)[C@H](CCCNC(=N)N)NC(=O)[C@@H]2CCCN2C(=O)[C@H](CC(C)C)NC(=O)[C@H](Cc2ccc(O)cc2)NC(=O)[C@@H]2CCCN2C(=O)[C@@H]2CCCN2C1=O)”, the “purity (crude or final not stated)” value stood at 97.52%.
On to “Ac-c(Cys-Pro-Pro-4fF-Leu-Pro-Dap-Tyr-Leu-Cys)-Dap-Leu-Ile-NH2”, for which the “purity (crude or final not stated)” value amounted to 98.74%.
For the substance “Ac-c(Cys-Pro-Pro-Tyr-NmeLeu-Pro-Dap-Tyr-Leu-Cys)-Dap-Leu-Ile-NH2”, the “purity (crude or final not stated)” value is on record as 97.04%.
Take “Ac-C(Cys-Pro-Pro-Tyr-Leu-Pro-Dap-Tyr-Leu-Cys)-Dap-Leu-aMdeLeu-NH2”: the “purity (crude or final not stated)” value turned out to be 95.46%.
On to “Ac-CPPYLP[Dap]YLC[Dap][Nle]I-NH2 (disulfide 1-10)”, for which the “purity (crude or final not stated)” value came out at 99.91%.
Regarding “c(Mpa-NmeTyr-Leu-NmeGly-c(Cys)-Tyr-Leu-Cys)-Dap-Leu-Ile-NH2”, the “purity (crude or final not stated)” value amounted to 95.3%.
“c(Mpa-NmeTyr-Leu-NmeGly-c(Cys)-Tyr-Leu-Cys)-Ser-Leu-Ile-NH2”: the “purity (crude or final not stated)” value is 96.87%.
“Ac-c(Cys-Pro-Pro-Tyr-Leu-Pro-Dap-4amideF-Leu-Cys)-Dap-Leu-Ile-NH2”: the “purity (crude or final not stated)” value was determined as 99.22%.
As for “Biotin-CPPYLPRRLCTLLLRS-OH (disulfide 1-10)”, the “purity (crude or final not stated)” value stood at 98.11%.
On to “c(Mpa-Pro-Pro-Tyr-Leu-Pro-c[Lys-Tyr-Leu-Cys)-Asp]-Leu-Ile-NH2”, for which the “purity (crude or final not stated)” value amounted to 95.85%.
As to “Ac-c(Cys-Pro-Pro-Tyr-leu-Pro-Dap-Tyr-Leu-Cys)-Dap-CbuA-Ile-NH2”, the “purity (crude or final not stated)” value worked out at 99.79%.
In the case of “Ac-c(Cys-Pro-Pro-4amideF-Leu-Pro-Dap-Tyr-Leu-Cys)-Dap-Let-Ile-NH2”, the “purity (crude or final not stated)” value is reported as 99.07%.
On to “c(Mpa-NmeTyt-Leu-Pro-c[Lys-Tyr-Leu-Cys)-Asp]-Leu-Ile-NH2”, for which the “purity (crude or final not stated)” value is given as 98.04%.
As to “c(M6a-Tyr-Leu-Pro-Dap-Tyr-Leu-hmC)-Dap-Leu-Ile-NH2”, the “purity (crude or final not stated)” value is 97.95%.
Take “c(Mpa-NmeTyr-Lsu-Pro-c[Lys-Tyr-Leu-Cys)-Asp]-Leu-Ile-NH2”: the “purity (crude or final not stated)” value is on record as 100%.

The values are drawn from patent publication US20230174582A1 (ICHIMARU PHARCOS CO., LTD, priority 2020, published 2023).
